This passage reports binding results from paper PMC9399600.

These are yes or no findings as the source states them, for the method shown. In cells and extracts the contact can be indirect. Tags and fused reporters may be left off the sequences shown.

In the experiment the target is T1, Flag-RIG-I (retinoic acid-inducible gene I) (UniProt O95786).
T1 sequence: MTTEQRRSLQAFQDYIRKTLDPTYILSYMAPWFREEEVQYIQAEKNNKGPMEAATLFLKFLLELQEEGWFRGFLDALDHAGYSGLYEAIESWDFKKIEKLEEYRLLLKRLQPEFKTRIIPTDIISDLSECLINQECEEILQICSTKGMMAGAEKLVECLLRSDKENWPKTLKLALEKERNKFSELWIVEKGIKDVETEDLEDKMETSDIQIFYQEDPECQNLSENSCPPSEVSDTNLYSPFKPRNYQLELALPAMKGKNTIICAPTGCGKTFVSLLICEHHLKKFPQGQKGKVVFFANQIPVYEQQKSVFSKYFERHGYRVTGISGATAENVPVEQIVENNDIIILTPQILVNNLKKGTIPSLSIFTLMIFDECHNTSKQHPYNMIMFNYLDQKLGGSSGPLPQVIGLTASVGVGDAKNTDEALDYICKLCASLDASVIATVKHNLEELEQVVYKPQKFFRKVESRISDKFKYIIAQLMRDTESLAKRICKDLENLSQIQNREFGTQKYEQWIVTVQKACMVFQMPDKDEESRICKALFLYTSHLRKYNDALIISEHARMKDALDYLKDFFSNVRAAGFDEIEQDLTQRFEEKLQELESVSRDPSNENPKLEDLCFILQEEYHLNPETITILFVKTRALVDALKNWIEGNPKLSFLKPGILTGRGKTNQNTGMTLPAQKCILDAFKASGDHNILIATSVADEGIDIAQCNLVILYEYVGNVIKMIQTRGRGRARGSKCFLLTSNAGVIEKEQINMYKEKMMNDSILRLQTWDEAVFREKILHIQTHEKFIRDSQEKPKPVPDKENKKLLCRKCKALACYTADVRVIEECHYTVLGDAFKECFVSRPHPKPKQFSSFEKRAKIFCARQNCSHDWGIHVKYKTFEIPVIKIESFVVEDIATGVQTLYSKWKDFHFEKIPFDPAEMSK
As to the kind of experiment: co-IP; HEK-293T cells co-transfected with HA-DDX21 and Flag-RIG-I; lysis buffer 50 mM Tris-HCl, 150 mM NaCl, 1% NP-40, 10% glycerin, 0.1% SDS, 2 mM Na2EDTA; precipitated with anti-HA (methods) or anti-Flag (legend of Figure 5D) antibody and protein A+G agarose at 4°C; western blot with anti-Flag and anti-HA. On the technique in general: A western blot detects proteins with antibodies after separation by electrophoresis.

B1: HA-DDX21 (DEAD-box RNA helicase 21) (protein, UniProt Q9NR30 1-783)
chain: MPGKLRSDAGLESDTAMKKGETLRKQTEEKEKKEKPKSDKTEEIAEEEETVFPKAKQVKKKAEPSEVDMNSPKSKKAKKKEEPSQNDISPKTKSLRKKKEPIEKKVVSSKTKKVTKNEEPSEEEIDAPKPKKMKKEKEMNGETREKSPKLKNGFPHPEPDCNPSEAASEESNSEIEQEIPVEQKEGAFSNFPISEETIKLLKGRGVTFLFPIQAKTFHHVYSGKDLIAQARTGTGKTFSFAIPLIEKLHGELQDRKRGRAPQVLVLAPTRELANQVSKDFSDITKKLSVACFYGGTPYGGQFERMRNGIDILVGTPGRIKDHIQNGKLDLTKLKHVVLDEVDQMLDMGFADQVEEILSVAYKKDSEDNPQTLLFSATCPHWVFNVAKKYMKSTYEQVDLIGKKTQKTAITVEHLAIKCHWTQRAAVIGDVIRVYSGHQGRTIIFCETKKEAQELSQNSAIKQDAQSLHGDIPQKQREITLKGFRNGSFGVLVATNVAARGLDIPEVDLVIQSSPPKDVESYIHRSGRTGRAGRTGVCICFYQHKEEYQLVQVEQKAGIKFKRIGVPSATEIIKASSKDAIRLLDSVPPTAISHFKQSAEKLIEEKGAVEALAAALAHISGATSVDQRSLINSNVGFVTMILQCSIEMPNISYAWKELKEQLGEEIDSKVKGMVFLKGKLGVCFDVPTASVTEIQEKWHDSRRWQLSVATEQPELEGPREGYGGFRGQREGSRGFRGQRDGNRRFRGQREGSRGPRGQRSGGGNKSNRSQNKGQKRSFSKAFGQ
As for B1, the binding entry is given as “no binding”.
